Measurements as given in publication PMC8053111.
Construct, isoform or probe ends are uncertain for at least one entry. For part of these data: A weaker result is weaker than the reference pair of the same experiment. For part of these data: Results from cells or extracts need not show a direct contact. For part of these data: At least one verdict was read from the data and is not stated in words by the source.

Sequences of proteins named here, by UniProt entry; tags and fusion partners are left off.
UniProt Q13310, whole entry: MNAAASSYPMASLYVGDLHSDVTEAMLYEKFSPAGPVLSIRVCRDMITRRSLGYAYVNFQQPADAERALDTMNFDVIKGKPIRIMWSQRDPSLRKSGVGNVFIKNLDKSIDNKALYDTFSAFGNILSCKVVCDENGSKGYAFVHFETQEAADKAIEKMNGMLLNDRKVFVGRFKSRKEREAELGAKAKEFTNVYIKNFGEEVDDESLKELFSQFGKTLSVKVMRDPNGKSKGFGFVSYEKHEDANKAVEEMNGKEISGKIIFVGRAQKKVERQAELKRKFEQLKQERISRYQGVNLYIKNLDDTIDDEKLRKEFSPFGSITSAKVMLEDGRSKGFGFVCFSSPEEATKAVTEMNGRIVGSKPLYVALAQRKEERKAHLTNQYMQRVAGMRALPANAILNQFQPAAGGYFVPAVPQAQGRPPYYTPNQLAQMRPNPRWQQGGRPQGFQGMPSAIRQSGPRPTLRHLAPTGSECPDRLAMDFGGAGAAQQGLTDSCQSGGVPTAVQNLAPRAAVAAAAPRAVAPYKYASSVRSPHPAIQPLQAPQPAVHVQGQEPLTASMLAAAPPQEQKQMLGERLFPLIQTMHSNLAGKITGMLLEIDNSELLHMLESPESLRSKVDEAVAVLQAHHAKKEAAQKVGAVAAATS
UniProt P11940, whole entry: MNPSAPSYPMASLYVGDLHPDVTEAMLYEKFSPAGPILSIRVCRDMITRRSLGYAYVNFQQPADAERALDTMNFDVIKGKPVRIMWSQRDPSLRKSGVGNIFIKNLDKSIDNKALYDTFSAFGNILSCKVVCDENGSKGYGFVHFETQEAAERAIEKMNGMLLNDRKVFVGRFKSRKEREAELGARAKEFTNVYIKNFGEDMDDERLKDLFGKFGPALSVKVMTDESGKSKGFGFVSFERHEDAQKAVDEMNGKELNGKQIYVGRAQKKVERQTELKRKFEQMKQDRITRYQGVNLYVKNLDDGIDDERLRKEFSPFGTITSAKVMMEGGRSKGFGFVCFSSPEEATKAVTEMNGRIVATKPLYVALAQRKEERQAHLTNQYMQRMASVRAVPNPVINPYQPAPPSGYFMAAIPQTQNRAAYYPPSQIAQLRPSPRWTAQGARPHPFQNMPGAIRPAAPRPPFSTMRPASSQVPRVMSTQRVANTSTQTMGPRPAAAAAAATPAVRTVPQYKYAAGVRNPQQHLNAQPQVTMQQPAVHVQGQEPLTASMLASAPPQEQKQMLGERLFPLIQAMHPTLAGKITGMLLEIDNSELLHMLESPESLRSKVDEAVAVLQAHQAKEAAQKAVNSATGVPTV

Columns and labels:
Assay in all cases: EMSA
[1] = biological target: Ub-PABPC4 (in vitro ubiquitinated by MKRN3) (human) (UniProt Q13310); conditions: in vitro ubiquitinated by MKRN3, much less affinity than unmodified; EMSA Binding Buffer (Beyotime, 5x stock; composition, salt and pH not given), room temperature, 1 h; 8% polyacrylamide 0.5x TBE gel; recombinant protein; protein details: Flag-His6; label: 32P (gamma-32P, stated at 3' end by T4 PNK)
[2] = biological target: PABPC4 (from MKRN3-/- HEK293 cells, not MKRN3-ubiquitinated) (human) (UniProt Q13310); conditions: unmodified, no MKRN3; EMSA Binding Buffer (Beyotime, 5x stock; composition, salt and pH not given), room temperature, 1 h; 8% polyacrylamide 0.5x TBE gel; protein in a lysate after overexpression; protein details: Flag; label: 32P (gamma-32P, stated at 3' end by T4 PNK)
[3] = biological target: Ub-PABPC1 (in vitro ubiquitinated by MKRN3) (human) (UniProt P11940); conditions: in vitro ubiquitinated by MKRN3, much less affinity than unmodified; EMSA Binding Buffer (Beyotime, 5x stock; composition, salt and pH not given), room temperature, 1 h; 8% polyacrylamide 0.5x TBE gel; recombinant protein; residues 1-636; protein details: Flag-His6; label: 32P (gamma-32P, stated at 3' end by T4 PNK)
[4] = biological target: PABPC1 (from MKRN3-/- HEK293 cells, not MKRN3-ubiquitinated) (human) (UniProt P11940); conditions: unmodified, no MKRN3; EMSA Binding Buffer (Beyotime, 5x stock; composition, salt and pH not given), room temperature, 1 h; 8% polyacrylamide 0.5x TBE gel; protein in a lysate after overexpression; protein details: Flag; label: 32P (gamma-32P, stated at 3' end by T4 PNK)
[5] = biological target: Ub-PABPC1 (from MKRN3-/- HEK293 cells + MKRN3) (human) (UniProt P11940); conditions: ubiquitinated in cells, much weaker than unmodified; EMSA Binding Buffer (Beyotime, 5x stock; composition, salt and pH not given), room temperature, 1 h; 8% polyacrylamide 0.5x TBE gel; protein in a lysate after overexpression; protein details: Flag; label: 32P (gamma-32P, stated at 3' end by T4 PNK)
[6] = biological target: Ub-PABPC4 (from MKRN3-/- HEK293 cells + MKRN3) (human) (UniProt Q13310); conditions: ubiquitinated in cells, much weaker than unmodified; EMSA Binding Buffer (Beyotime, 5x stock; composition, salt and pH not given), room temperature, 1 h; 8% polyacrylamide 0.5x TBE gel; protein in a lysate after overexpression; protein details: Flag; label: 32P (gamma-32P, stated at 3' end by T4 PNK)

## AAAAAAAAAAAAAAAAAAAAAAAAAAAAAA [(A)30 RNA]
[1]
  binding result: binds more weakly
[2]
  binding result: binds
[3]
  binding result: binds more weakly
[4]
  binding result: binds
[5]
  binding result: binds more weakly
[6]
  binding result: binds more weakly
